From patent US20070213354A1, “Compositions and Methods for the Treatment of Multiple Sclerosis” (AmpliMed Corporation, priority 2006, published 2007)
No dose or concentration is given here for some results.

Tested on: neonatal rat myocytes
Test: Cardiotoxicity, neonatal rat myocyte assay (ATP/protein ratio)
Assay type: cell-based
Conditions: ratio of the IC50 values for Cardiotox and L1210 sensitive assays

Row | Structure (SMILES) | Cardiotox:L1210sens
1 | CCN1CCCC(N2C(=O)c3cccc4cc5ccccc5c(c34)C2=O)C1 (stereo not drawn) [2-(1-ethyl-3-piperidinyl)] | 13.80
2 | O=C1c2cccc3cc4ccccc4c(c23)C(=O)N1c1cccnc1 [2-(3-pyridyl)] | 45.96
3 | O=C1c2cccc3cc4ccccc4c(c23)C(=O)N1CCc1ccccn1 [2-(CH2)2-2-pyridyl] | 3.88
4 | CN1CCCC1CCN1C(=O)c2cccc3cc4ccccc4c(c23)C1=O (stereo not drawn) [2-(CH2)2-(1-methyl-2-pyrrolidinyl)] | 138.82
5 | O=C1c2cccc3cc4ccccc4c(c23)C(=O)N1CCN1CCCC1 [2-(CH2)2N(CH2)4] | 61.33
6 | O=C1c2cccc3cc4ccccc4c(c23)C(=O)N1CCN1CCCCC1 [2-(CH2)2N(CH2)5] | 203.92
7 | CN(C)CCN1C(=O)c2cccc3cc4ccccc4c(c23)C1=O [2-(CH2)2N(CH3)2] | 283.29
8 | O=C1c2cccc3cc4ccccc4c(c23)C(=O)N1CCNCCO [2-(CH2)2NH(CH2)2OH] | 52.39
9 | CNCCN1C(=O)c2ccc(Cl)c3cc4ccccc4c(c23)C1=O [2-(CH2)2NHCH3; 6-Cl] | 143.40
10 | CNCCN1C(=O)c2ccc(OC)c3cc4ccccc4c(c23)C1=O [2-(CH2)2NHCH3; 6-OCH3] | 197.49
11 | CNCCN1C(=O)c2cccc3cc4ccccc4c(c23)C1=O [2-(CH2)2NHCH3] | 706.00
12 | O=C1c2cccc3cc4ccccc4c(c23)C(=O)N1CCN1CCOCC1 [2-(CH2)2—N-morpholinyl] | 48.83
13 | O=C1c2cccc3cc4ccccc4c(c23)C(=O)N1CCN1CCNCC1 [2-(CH2)2—N-piperazinyl] | 38.58
14 | O=C1c2cccc3cc4ccccc4c(c23)C(=O)N1CCCN(CCO)CCO [2-(CH2)3N(CH2CH2OH)2] | 117.24
15 | CN(C)CCCN1C(=O)c2cccc3cc4ccccc4c(c23)C1=O [2-(CH2)3N(CH3)2] | 211.30
16 | CN(C)c1ccc(N2C(=O)c3cccc4cc5ccccc5c(c34)C2=O)cc1 [2-(p-N(CH3)2)—C6H5)] | 199.53
17 | O=C1c2cccc3cc4ccccc4c(c23)C(=O)N1Cc1ccccn1 [2-CH2-2-pyridyl] | 0.93
18 | O=C1c2cccc3cc4ccccc4c(c23)C(=O)N1Cc1cccnc1 [2-CH2-3-pyridyl] | 13.35
19 | CCN1CCCC1CN1C(=O)c2cccc3cc4ccccc4c(c23)C1=O (stereo not drawn) [2-CH2-(1-ethyl-2-pyrrolidinyl)] | 422.22
20 | Cc1ccc2cc3ccccc3c3c2c1C(=O)N(CCN(C)C)C3=O [*4-CH3] | 25.13
21 | CN(C)CCN1C(=O)c2c(Cl)ccc3cc4ccccc4c(c23)C1=O [*4-Cl] | 90.00

Row | Structure (SMILES) | Cardiotox:L1210sens
22 | CN(C)CCN1C(=O)c2c(N)ccc3cc4ccccc4c(c23)C1=O [*4-NH2] | 86.80
23 | CN(C)CCNc1ccc2cc3ccccc3c3c2c1C(=O)N(CCN(C)C)C3=O [*4-NH(CH2)2N(CH3)2] | 3.50
24 | CN(C)CCN1C(=O)c2c(NC(=O)C(C)(C)C)ccc3cc4ccccc4c(c23)C1=O [*4-NHCOC(CH3)3] | 28.57
25 | CC(=O)Nc1ccc2cc3ccccc3c3c2c1C(=O)N(CCN(C)C)C3=O [*4-NHCOCH3] | 40.02
26 | CN(C)CCN1C(=O)c2cc(N)cc3cc4ccccc4c(c23)C1=O [*5-NH2] | 287.33
27 | CN(C)CCN1C(=O)c2cc(NC(=O)C(C)(C)C)cc3cc4ccccc4c(c23)C1=O [*5-NHCOC(CH3)3] | 15.05
28 | CC(=O)Nc1cc2c3c(c4ccccc4cc3c1)C(=O)N(CCN(C)C)C2=O [*5-NHCOCH3] | 9.32
29 | CCc1ccc2c3c(c4ccccc4cc13)C(=O)N(CCN(C)C)C2=O [*6-C2H5] | 42.80
30 | Cc1ccc2c3c(c4ccccc4cc13)C(=O)N(CCN(C)C)C2=O [*6-CH3] | 141.29
31 | CN(C)CCN1C(=O)c2ccc(Cl)c3cc4ccccc4c(c23)C1=O [*6-Cl] | 53.42
32 | CN(C)CCN1C(=O)c2ccc(I)c3cc4ccccc4c(c23)C1=O [*6-I] | 105.06
33 | CN(C)CCN1C(=O)c2ccc(N(C)C)c3cc4ccccc4c(c23)C1=O [*6-N(CH3)2] | 2026.04
34 | CN(C)CCN1C(=O)c2ccc(N)c3cc4ccccc4c(c23)C1=O [*6-NH2] | 297.20
35 | CN(C)CCNc1ccc2c3c(c4cccc(Cl)c4cc13)C(=O)N(CCN(C)C)C2=O [*6-NH(CH2)2N(CH3)2; 8-Cl] | 1075.33
36 | CN(C)CCNc1ccc2c3c(c4ccccc4cc13)C(=O)N(CCN(C)C)C2=O [*6-NH(CH2)2N(CH3)2] | 104825.00
37 | CN(C)CCN1C(=O)c2ccc(NCCO)c3cc4ccccc4c(c23)C1=O [*6-NH(CH2)2OH] | 201.50
38 | CN(C)CCOc1ccc2c3c(c4ccccc4cc13)C(=O)N(CCN(C)C)C2=O [*6-O(CH2)2N(CH3)2] | 27195.00
39 | CCOc1ccc2c3c(c4ccccc4cc13)C(=O)N(CCN(C)C)C2=O [*6-OC2H5] | 222.38
40 | CCCOc1c2ccccc2c2c3c(cccc13)C(=O)N(CCN(C)C)C2=O [*6-OC3H7] | 456.35
41 | COc1ccc2c3c(c4ccccc4cc13)C(=O)N(CCN(C)C)C2=O [*6-OCH3] | 266.33
42 | CN(C)CCN1C(=O)c2ccc(O)c3cc4ccccc4c(c23)C1=O [*6-OH] | 111.04

Row | Structure (SMILES) | Cardiotox:L1210sens
43 | CCSc1ccc2c3c(c4ccccc4cc13)C(=O)N(CCN(C)C)C2=O [*6-SC2H5] | 1289.67
44 | CSc1ccc2c3c(c4ccccc4cc13)C(=O)N(CCN(C)C)C2=O [*6-SCH3] | 7500.00
45 | CN(C)CCN1C(=O)c2ccc(S(C)(=O)=O)c3cc4ccccc4c(c23)C1=O [*6-SO2CH3] | 66.14
46 | Cc1c2ccccc2c2c3c(cccc13)C(=O)N(CCN(C)C)C2=O [*7-CH3] | 49.56
47 | CN(C)CCN1C(=O)c2cccc3c(Cl)c4ccccc4c(c23)C1=O [*7-Cl] | 70.11
48 | CN(C)CCN1C(=O)c2cccc3c(N)c4ccccc4c(c23)C1=O [*7-NH2] | 390.20
49 | CN(C)CCNc1c2ccccc2c2c3c(cccc13)C(=O)N(CCN(C)C)C2=O [*7-NH(CH2)2N(CH3)2] | 554.65
50 | CC(=O)Nc1c2ccccc2c2c3c(cccc13)C(=O)N(CCN(C)C)C2=O [*7-NHCOCH3] | 48.49
51 | CCOc1c2ccccc2c2c3c(cccc13)C(=O)N(CCN(C)C)C2=O [*7-OC2H5] | 84.13
52 | CN(C)CCN1C(=O)c2cccc3c(O)c4ccccc4c(c23)C1=O [*7-OH] | 51.05
53 | CSc1c2ccccc2c2c3c(cccc13)C(=O)N(CCN(C)C)C2=O [*7-SCH3] | 8.00
54 | CN(C)CCN1C(=O)c2cccc3cc4c(N)cccc4c(c23)C1=O [*8-NH2] | 12.00
55 | CC(=O)Nc1cccc2c3c4c(cccc4cc12)C(=O)N(CCN(C)C)C3=O [*8-NHCOCH3] | 25.02
56 | CN(C)CCN1C(=O)c2cccc3cc4c([N+](=O)[O-])cccc4c(c23)C1=O [*8-NO2] | 13.00
57 | COc1cccc2c3c4c(cccc4cc12)C(=O)N(CCN(C)C)C3=O [*8-OCH3] | 62.00
58 | CN(C)CCN1C(=O)c2cccc3cc4c(O)cccc4c(c23)C1=O [*8-OH] | 27.31
59 | CN(C)CCN1C(=O)c2cccc3cc4cc(Cl)ccc4c(c23)C1=O [*9-Cl] | 192.75
60 | CN(C)CCN1C(=O)c2cccc3cc4cc(N)ccc4c(c23)C1=O [*9-NH2] | 271.00
61 | CC(=O)Nc1ccc2c3c4c(cccc4cc2c1)C(=O)N(CCN(C)C)C3=O [*9-NHCOCH3] | 4.27
62 | COc1ccc2c3c4c(cccc4cc2c1)C(=O)N(CCN(C)C)C3=O [*9-OCH3] | 48.09
63 | CN(C)CCN1C(=O)c2cccc3cc4cc(O)ccc4c(c23)C1=O [*9-OH] | 80.80

Row | Structure (SMILES) | Cardiotox:L1210sens
64 | Cc1ccc2cc3cccc4c3c(c2c1)C(=O)N(CCN(C)C)C4=O [*10-CH3] | 24.49
65 | CN(C)CCN1C(=O)c2cccc3cc4ccc(C#N)cc4c(c23)C1=O [*10-CN] | 7.00
66 | CN(C)CCN1C(=O)c2cccc3cc4ccc(Cl)cc4c(c23)C1=O [*10-Cl] | 154.20
67 | CN(C)CCN1C(=O)c2cccc3cc4ccc(F)cc4c(c23)C1=O [*10-F] | 57.00
68 | CN(C)CCN1C(=O)c2cccc3cc4ccc(I)cc4c(c23)C1=O [*10-I] | 15.34
69 | CN(C)CCN1C(=O)c2cccc3cc4ccc(N)cc4c(c23)C1=O [*10-NH2] | 314.33
70 | CN(C)CCN1C(=O)c2cccc3cc4ccc(NC(=O)C(C)(C)C)cc4c(c23)C1=O [*10-NHCOC(CH3)3] | 55.13
71 | CC(=O)Nc1ccc2cc3cccc4c3c(c2c1)C(=O)N(CCN(C)C)C4=O [*10-NHCOCH3] | 158.90
72 | CN(C)CCN1C(=O)c2cccc3cc4ccc([N+](=O)[O-])cc4c(c23)C1=O [*10-NO2] | 32.04
73 | CCOc1ccc2cc3cccc4c3c(c2c1)C(=O)N(CCN(C)C)C4=O [*10-OC2H5] | 451.68
74 | COc1ccc2cc3cccc4c3c(c2c1)C(=O)N(CCN(C)C)C4=O [*10-OCH3] | 433.48
75 | CN(C)CCN1C(=O)c2cccc3cc4ccc(O)cc4c(c23)C1=O [*10-OH] | 142.80
76 | CN(C)CCN1C(=O)c2cccc3cc4cccc(Cl)c4c(c23)C1=O [*11-Cl] | 4.62
77 | CN(C)CCN1C(=O)c2cccc3cc4cccc(N)c4c(c23)C1=O [*11-NH2] | 39.97
78 | CC(=O)Nc1cccc2cc3cccc4c3c(c12)C(=O)N(CCN(C)C)C4=O [*11-NHCOCH3] | 92.59
79 | CN(C)CCN1C(=O)c2cccc3cc4cccc([N+](=O)[O-])c4c(c23)C1=O [*11-NO2] | 375.96
80 | CN(C)CCN1C(=O)c2cccc3cc4cccc(O)c4c(c23)C1=O [*11-OH] | 81.61
81 | COc1cccc2c1C(=O)c1c(O)c3c(c(O)c1C2=O)C[C@@](O)(C(=O)CO)C[C@@H]3O[C@H]1C[C@H](N)[C@H](O)[C@H](C)O1 [Doxorubicin, reference compound] | 290.03
